# Cell number after 72 h of treatment

All values are for the listed drug together with KU-0063794 (0.02 µM): COc1ccc(-c2ccc3c(N4CCOCC4)nc(N4C[C@@H](C)O[C@@H](C)C4)nc3n2)cc1CO

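The test systems are human melanoma cell lines, treated with a pair of drugs for 72 h and then stained and imaged. Values are the number of DAPI-stained nuclei as a percentage of the DMSO control: 100 is no effect, lower means fewer cells. Concentrations were fixed for each drug; these are the lower of two levels, a fifth of the higher. The file gives one value for each pair and line, without errors, so small differences may be noise.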
Only some of the drugs and lines screened are listed, without regard to their results.
A dash means that no value is listed here.

| # | Second drug | A375 | A2058 | C32 | A101D | 501mel |
|---|---|---|---|---|---|---|
| 1 | CCCCCCCCCCCCCCCCCCOP(=O)([O-])OC1CC[N+](C)(C)CC1 at 0.4 µM | - | 88.1 | 92.6 | 105 | 81.4 |
| 2 | C[C@]12O[C@H](C[C@]1(O)CO)n1c3ccccc3c3c4c(c5c6ccccc6n2c5c31)CNC4=O at 0.004 µM | - | 106 | 108 | 101 | 94.9 |
| 3 | CS(=O)(=O)c1ccc(C(=O)Nc2ccc(Cl)c(-c3ccccn3)c2)c(Cl)c1 at 1 µM | - | 79.9 | 99.2 | 94.2 | 104 |
| 4 | CCN(CC)CCCCNc1ncc2cc(-c3cc(OC)cc(OC)c3)c(NC(=O)NC(C)(C)C)nc2n1 at 0.1 µM | 112 | 97.4 | 98.5 | 108 | 95.5 |
| 5 | OCc1c[nH]c2ccccc12 at 0.8 µM | - | 107 | 97.5 | 99.4 | 81.8 |
| 6 | Cc1cc(Nc2cc(N3CCN(C)CC3)nc(Sc3ccc(NC(=O)C4CC4)cc3)n2)n[nH]1 at 0.006 µM | - | 93.4 | 87.1 | 86.6 | 97.9 |
| 7 | CCCS(=O)(=O)Nc1ccc(F)c(C(=O)c2c[nH]c3ncc(Cl)cc23)c1F at 0.08 µM | - | 114 | 78.5 | 83.5 | 112 |
| 8 | C[C@@H](N)c1ccc(C(=O)Nc2ccnc3[nH]ccc23)cc1 at 0.4 µM | - | 72.9 | 63.1 | 88.7 | 101 |
| 9 | Cc1cc([N+](=O)[O-])ccc1NS(=O)(=O)c1cc(Cl)ccc1Cl at 1 µM | 87.5 | 95.7 | 77.6 | 97.5 | 105 |
| 10 | CC[C@]1(O)C[C@H]2CN(CCc3c([nH]c4ccccc34)[C@@](C(=O)OC)(c3cc4c(cc3OC)N(C=O)[C@H]3[C@@](O)(C(=O)OC)[C@H](OC(C)=O)[C@]5(CC)C=CCN6CC[C@]43[C@@H]65)C2)C1 at 0.0001 µM | - | 48.7 | 101 | 83.1 | 87.6 |
| 11 | CN1CCN(c2ccc3nc(-c4c(N)c5c(F)cccc5[nH]c4=O)[nH]c3c2)CC1 at 0.1 µM | - | 100 | 108 | 112 | 107 |
| 12 | Cn1cc(C2=C(c3cn(C4CCN(Cc5ccccn5)CC4)c4ccccc34)C(=O)NC2=O)c2ccccc21 at 0.8 µM | - | 95.5 | 92.6 | 93.8 | 91.9 |
| 13 | N#CC[C@H](C1CCCC1)n1cc(-c2ncnc3[nH]ccc23)cn1 at 1 µM | - | 94.4 | 104 | 105 | 98.8 |
| 14 | O=C(O)C(=O)Nc1sc2c(c1C(=O)O)CCNC2 at 1.67 µM | 84.4 | 96.2 | 96.9 | 95.2 | 94.8 |
| 15 | Oc1nc(-c2ccc(C(F)(F)F)cc2)nc2c1CSCC2 at 2 µM | 117 | 79.2 | 107 | 93.5 | 93.6 |
| 16 | CCCCCCCCCCCC1=C(O)C(=O)C=C(O)C1=O at 1.2 µM | 116 | 113 | 103 | 103 | 98.6 |
| 17 | COc1ccc(COc2ccc(Cc3cnc(N)nc3N)cc2OC)cc1 at 1 µM | 110 | 102 | 103 | 100 | 110 |
| 18 | O=C1NC(=O)/C(=C/c2ccc(-c3ccc(F)cc3O)o2)S1 at 1 µM | 97.0 | 88.4 | 93.1 | 112 | 110 |
| 19 | O=C(Nc1cc(C(F)(F)F)cc(C(F)(F)F)c1)c1cc(Cl)ccc1O at 0.016 µM | - | 108 | 93.3 | 98.8 | 91.9 |
| 20 | COc1ccc2c(c1)CCC1C2CCC2(C)C(NCCCCCCN3C(=O)C=CC3=O)CCC12 (stereo not given) at 0.4 µM | 85.0 | 82.6 | 88.1 | 88.9 | 83.8 |
| 21 | O=c1cc(-c2cccc3c2Sc2ccccc2S3)oc(N2CCOCC2)c1 at 1 µM | 96.8 | 121 | 90.8 | 93.8 | 85.3 |
| 22 | COc1cc(Nc2ncc(F)c(Nc3ccc4c(n3)NC(=O)C(C)(C)O4)n2)cc(OC)c1OC at 0.4 µM | 80.2 | 88.1 | 102 | 79.5 | 85.9 |
| 23 | COc1cc2ncnc(Nc3ccc(Oc4ccccc4)cc3)c2cc1OC at 2 µM | 97.6 | 94.7 | 94.9 | 95.7 | 119 |
| 24 | COc1cc(N2CCC(N3CCN(C)CC3)CC2)ccc1Nc1ncc(Cl)c(Nc2ccccc2S(=O)(=O)C(C)C)n1 at 0.08 µM | 73.8 | 83.7 | 87.5 | 103 | 85.5 |
| 25 | O=C(O)[C@@H]1[O][Sb](=[O])([O][Sb]2(=[O])[O][C@H]([C@H](O)CO)[C@H](O)[C@H](C(=O)O)[O]2)[O][C@H]([C@H](O)CO)[C@@H]1O (stereo not given in full) at 2 µM | - | 105 | 92.9 | 104 | 88.8 |

2 of the entries, repeated:

| Second drug | A375 | A2058 | C32 | A101D | 501mel |
|---|---|---|---|---|---|
| OCc1c[nH]c2ccccc12 at 0.8 µM | - | 107 | 97.5 | 99.4 | 81.8 |
| COc1cc2ncnc(Nc3ccc(Oc4ccccc4)cc3)c2cc1OC at 2 µM | 97.6 | 94.7 | 94.9 | 95.7 | 119 |

From a melanoma drug combination screen (doi:10.1371/journal.pone.0140310); values rounded.